Source: paper PMC11425837
These are yes or no findings as the source states them, for the method shown. In cells and extracts the contact can be indirect. Some results given as binding are weak or reduced against the parent protein; the word gives no strength. Sequences can lack the tags named with a protein.

Sequences of proteins named here, by UniProt entry; tags and fusion partners are left off.
UniProt P11499: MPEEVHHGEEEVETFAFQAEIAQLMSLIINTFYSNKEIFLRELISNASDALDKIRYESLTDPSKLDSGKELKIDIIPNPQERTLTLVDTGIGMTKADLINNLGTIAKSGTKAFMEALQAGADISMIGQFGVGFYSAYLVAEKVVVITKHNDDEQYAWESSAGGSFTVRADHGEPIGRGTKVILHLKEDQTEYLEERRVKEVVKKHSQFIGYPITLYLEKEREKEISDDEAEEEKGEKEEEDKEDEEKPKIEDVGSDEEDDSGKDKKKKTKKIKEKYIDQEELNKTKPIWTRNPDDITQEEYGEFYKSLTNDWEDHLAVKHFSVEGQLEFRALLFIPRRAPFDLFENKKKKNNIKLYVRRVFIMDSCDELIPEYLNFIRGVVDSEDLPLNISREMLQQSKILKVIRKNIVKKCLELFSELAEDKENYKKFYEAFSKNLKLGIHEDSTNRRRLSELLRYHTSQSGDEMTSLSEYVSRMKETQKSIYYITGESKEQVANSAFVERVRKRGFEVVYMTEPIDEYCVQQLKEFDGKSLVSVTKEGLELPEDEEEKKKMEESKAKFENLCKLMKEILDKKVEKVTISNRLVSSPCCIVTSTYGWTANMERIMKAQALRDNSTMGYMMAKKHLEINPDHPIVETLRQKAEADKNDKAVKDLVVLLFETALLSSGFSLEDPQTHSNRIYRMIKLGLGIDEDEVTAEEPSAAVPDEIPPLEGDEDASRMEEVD

Molecular target: Flag‐HSP90ab1 (UniProt P11499)
Test: co-IP; HEK293T cells transfected with the indicated plasmids (Flag-HSP90ab1 or its KR mutants, His-SENP1, SUMO1); antibody on beads, lysate 2 h, Western blot

binding: binds
B1: His‐SENP1 (enzyme, UniProt P59110 1-640)
chain: MDDTADGVKMDAGEVTLVNHGSTFRTHRPPQSGFPEEQLLLSDQQSLPFRQGTLDGSFTCSTRSPAYRPDYHSDNPSSDSFLGSGDVRTFGQSANGQWRNSTPASGSAPQKPRNSRSLCLETRKTSSGLSNTFVGKSNHHCHMSAYEKSFPIKPAPSPSWSGSCRRSLLSPKKTQRRHFSTAEETVQEEEKEIYRQLLQMVTGKQFCVAKPTTHFPLRLSRCLSSNKNSLKDSLLRNGNSCASHVIGSDTSSSGSASILTAQEQLSHSAHSLSSGTPDVAFGSKDSDPHHHLAAPHQPNSLPASNTQSEGSDSVILLKVKESQTPASSPTFFQAELWIKELTSVYDSRARERLRRIEEQKALALQLQNQRLQEQEHAVLDSVELHLRVPLEKEIPVTAAQETRKKSHQLTDSEDEFPEITEEMEKEIKNVFRNGNQDEVLSEAFRLTITRKDIQTLNHLNWLNDEIINFYMNMLMERSKEKGFPSVHAFNTFFFTKLKTAGYQAVKRWTKKVDVFSVDILLVPIHLGVHWCLAVVDFRRKSITYYDSMGGINNEACRILLQYLKQESVDKKRKEFDTNGWQLFSKKSQEIPQQMNGSDCGMFACKYADCITKDRPINFTQQHMPYFRKRMVWEILHRKLL
